# Experimental data from article doi:10.1101/2020.05.28.121053.
# Results are given in words; binding and its absence hold for the method and conditions named. For some assays here: Binding calls can cover weak binding; strength is not graded here.
# B1: fluoresceinated peptide matching the C-terminus of GIRK3 (peptide)
# peptide: LPPPESESKV
# modifications: fluoresceinated (F*)
# B2: decameric peptide matching the final 10 residues of the mbGIPC_(SFDEI) construct (peptide)
# peptide: VEPKKSFDEI
# Key:
# [1] = molecular target: mbSHANK1 PDZ domain (Monosiga brevicollis SHANK1 homologue) (Monosiga brevicollis); test: crystal structure
# [2] = molecular target: mbGIPC PDZ domain (Monosiga brevicollis GIPC homologue, original construct) (Monosiga brevicollis); test: fluorescence polarisation
binding [1],binding [2],Binder
binds,,B1
,no binding (tested: 1 mM),B2
